Results deposited as PubChem BioAssay AID1259405 (NCATS, 2018).
Test: 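Silenced genes that increase secreted GFP made by CHO cells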 (primary screen). Cells: Chinese hamster CHO-K1 ovary cells with stable secreted eGFP expression. Knock-down reagent: single siRNA against mouse genes, 0.8 pmol siRNA per well (2 µl of 400 nM stock). Duration: 3 days. Read-out: 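Per-well intracellular GFP measured by laser scanning cytometry, plus viability from ATP luminescence, each relative to plate median of non-targeting control wells, in %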. Scale: GFP, % of control: higher = more GFP per well, higher productivity; viability (ATP), % of control: higher = more viable cells (more ATP). Call rule: 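Called active when intracellular GFP, relative to negative control, is at or above 120%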.
Here is one part, drawn at random, of about 50,000 reagents tested. Over the whole deposit, about 4,000 (8%) got an active call. 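Mouse siRNA library applied to hamster cells; one well for each siRNA.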 The numbers tell different reagents against one gene apart.

no.	gene	siRNA no.	GFP, % of control	viability (ATP), % of control	activity call
1	Macroh2a1 (GeneID 26914)	1	87.6	88.3	inactive
2	Macroh2a1 (GeneID 26914)	2	79.8	80.1	inactive
3	Macroh2a1 (GeneID 26914)	3	97.8	85.8	inactive
4	Asah1 (GeneID 11886)	1	51.5	34.9	inactive
5	Asah1 (GeneID 11886)	2	85.2	81.8	inactive
6	Asah1 (GeneID 11886)	3	117	122	inactive
7	Numbl (GeneID 18223)	1	84.1	63.5	inactive
8	Numbl (GeneID 18223)	2	70.2	104	inactive
9	Numbl (GeneID 18223)	3	93	74.4	inactive
10	Stil (GeneID 20460)	1	73	74.4	inactive
11	Stil (GeneID 20460)	2	38.1	55.6	inactive
12	Stil (GeneID 20460)	3	62.8	71.7	inactive
13	Ranbp1 (GeneID 19385)	1	50.9	52.9	inactive
14	Ranbp1 (GeneID 19385)	2	77.5	75.8	inactive
15	Ranbp1 (GeneID 19385)	3	70.1	54.8	inactive
16	Hace1 (GeneID 209462)	1	82.6	69.5	inactive
17	Hace1 (GeneID 209462)	2	160	75.5	active
18	Hace1 (GeneID 209462)	3	92.7	79.8	inactive
19	Rpgr (GeneID 19893)	1	108	122	inactive
20	Rpgr (GeneID 19893)	2	117	101	inactive
21	Rpgr (GeneID 19893)	3	111	77.6	inactive
22	Elp4 (GeneID 77766)	1	65.5	71.9	inactive
23	Elp4 (GeneID 77766)	2	113	87.8	inactive
24	Elp4 (GeneID 77766)	3	85.4	65.7	inactive
25	Gsto2 (GeneID 68214)	1	23.5	42.8	inactive
26	Gsto2 (GeneID 68214)	2	47.9	77.6	inactive
27	Gsto2 (GeneID 68214)	3	93.4	89.4	inactive
28	Wdpcp (GeneID 216560)	1	45.6	105	inactive
29	Wdpcp (GeneID 216560)	2	64.5	102	inactive
30	Wdpcp (GeneID 216560)	3	74.2	74.2	inactive
31	Vmn1r-ps8 (GeneID 113861)	1	88.2	61.5	inactive
32	Vmn1r-ps8 (GeneID 113861)	2	69.2	62.7	inactive
33	Vmn1r-ps8 (GeneID 113861)	3	88	101	inactive
34	Apoc3 (GeneID 11814)	1	36.3	16.8	inactive
35	Apoc3 (GeneID 11814)	2	247	96.6	active
36	Apoc3 (GeneID 11814)	3	63.3	73.5	inactive
37	Lyzl6 (GeneID 69444)	1	54	20.8	inactive
38	Lyzl6 (GeneID 69444)	2	81.8	79.9	inactive
39	Lyzl6 (GeneID 69444)	3	71.9	54.5	inactive
40	Etv6 (GeneID 14011)	1	99.6	117	inactive
41	Etv6 (GeneID 14011)	2	84	84.5	inactive
42	Mepe (GeneID 94111)	1	53	75.7	inactive
43	Mepe (GeneID 94111)	2	105	74.4	inactive
44	Mepe (GeneID 94111)	3	83.3	72.3	inactive
45	Trim2 (GeneID 80890)	1	121	57.3	active
46	Trim2 (GeneID 80890)	2	124	106	active
47	Trim2 (GeneID 80890)	3	108	119	inactive
48	H2-M2 (GeneID 14990)	1	49.8	62.3	inactive
49	H2-M2 (GeneID 14990)	2	180	85.6	active
50	H2-M2 (GeneID 14990)	3	80	76.9	inactive
51	Lrrc10 (GeneID 237560)	1	59.9	64	inactive
52	Lrrc10 (GeneID 237560)	2	31.6	19	inactive
53	Lrrc10 (GeneID 237560)	3	138	75	active
54	Cd5l (GeneID 11801)	1	89	56.6	inactive
55	Cd5l (GeneID 11801)	2	65	62.8	inactive
56	Cd5l (GeneID 11801)	3	98.7	66.5	inactive
57	Prps1l1 (GeneID 75456)	1	113	81.1	inactive
58	Sytl5 (GeneID 236643)	1	93.1	129	inactive
59	Sytl5 (GeneID 236643)	2	84.5	73.4	inactive
60	Phc2 (GeneID 54383)	1	83.5	92.6	inactive
61	Phc2 (GeneID 54383)	2	70.1	55.7	inactive
62	Phc2 (GeneID 54383)	3	90.1	72.9	inactive
63	Ankrd44 (GeneID 329154)	1	99.4	61.2	inactive
64	Ankrd44 (GeneID 329154)	2	54.4	54.3	inactive
65	Ankrd44 (GeneID 329154)	3	58.3	78.6	inactive
66	Vmn1r75 (GeneID 171241)	1	67.7	41.3	inactive
67	Vmn1r75 (GeneID 171241)	2	102	83.4	inactive
68	Vmn1r75 (GeneID 171241)	3	34.6	50.4	inactive
69	Pde7a (GeneID 18583)	1	102	80.9	inactive
70	Pde7a (GeneID 18583)	2	44.9	34	inactive
71	Pde7a (GeneID 18583)	3	33.7	30.5	inactive
72	Dctn5 (GeneID 59288)	1	72	84.1	inactive
73	Dctn5 (GeneID 59288)	2	74	75.2	inactive
74	Dctn5 (GeneID 59288)	3	87	89.5	inactive
75	Hint1 (GeneID 15254)	1	91.1	92.2	inactive
76	Hint1 (GeneID 15254)	2	88.4	55.8	inactive
77	Hint1 (GeneID 15254)	3	111	86.9	inactive
78	Krt79 (GeneID 223917)	1	43.8	60.8	inactive
79	Krt79 (GeneID 223917)	2	63.2	68.3	inactive
80	Xrcc6 (GeneID 14375)	1	78.9	79.8	inactive
81	Xrcc6 (GeneID 14375)	2	81.1	67.1	inactive
82	Xrcc6 (GeneID 14375)	3	85	85.3	inactive
83	Oard1 (GeneID 106821)	1	84.3	90	inactive
84	Oard1 (GeneID 106821)	2	74.6	37.1	inactive
85	Oard1 (GeneID 106821)	3	73.1	96.8	inactive
